In paper PMC2990700:
No constants are given. Whether binding was seen depends on the method and setting. Binding seen in cells or lysates may run through a third protein. Binding can be weak; no strength is given. Tags and fused reporters may be left off the sequences shown.

Molecular target: HA-tagged murine eIF3f catalytic mutant (meIF3f Mut) (mouse) (UniProt Q9DCH4)
Assay: co-IP; HEK293T cotransfected; lysis and IP in 50 mM Tris-HCl pH 7.9, 400 mM NaCl, 5 mM MgCl2, 1% Triton X-100; eIF3f immunoprecipitated with anti-HA or anti-Flag; Western blot

B1: VSV-tagged Deltex1 (VSV-DTX) (protein, UniProt Q86Y01 1-620)
chain: MSRPGHGGLMPVNGLGFPPQNVARVVVWEWLNEHSRWRPYTATVCHHIENVLKEDARGSVVLGQVDAQLVPYIIDLQSMHQFRQDTGTMRPVRRNFYDPSSAPGKGIVWEWENDGGAWTAYDMDICITIQNAYEKQHPWLDLSSLGFCYLIYFNSMSQMNRQTRRRRRLRRRLDLAYPLTVGSIPKSQSWPVGASSGQPCSCQQCLLVNSTRAASNAILASQRRKAPPAPPLPPPPPPGGPPGALAVRPSATFTGAALWAAPAAGPAEPAPPPGAPPRSPGAPGGARTPGQNNLNRPGPQRTTSVSARASIPPGVPALPVKNLNGTGPVHPALAGMTGILLCAAGLPVCLTRAPKPILHPPPVSKSDVKPVPGVPGVCRKTKKKHLKKSKNPEDVVRRYMQKVKNPPDEDCTICMERLVTASGYEGVLRHKGVRPELVGRLGRCGHMYHLLCLVAMYSNGNKDGSLQCPTCKAIYGEKTGTQPPGKMEFHLIPHSLPGFPDTQTIRIVYDIPTGIQGPEHPNPGKKFTARGFPRHCYLPNNEKGRKVLRLLITAWERRLIFTIGTSNTTGESDTVVWNEIHHKTEFGSNLTGHGYPDASYLDNVLAELTAQGVSEAAAKA
binding: binds
